# Assay: Sensitivity of electrochemical CO sensors using the protonic ionic liquid as electrolyte
# Settings: CO sensor exposed to 100 ppm of CO in the atmosphere
row,Structure (SMILES),Sensitivity [nA/ppm cm^2]
1,CCNCC.O=S(=O)(O)O [Example 1],32.2
2,O=S(=O)(O)O.c1ccncc1 [Example 3],23.2
3,CCN1CCCC1 [Example 4],18.19
4,COCCNCCOC [Example 7],22.11
5,CCN1CCCC1 [Example 8],5.94
6,CCNCC.CNS(=O)(=O)O [Example 9],10.01
7,CCN1CCCC1 [Example 10],9.59
8,CNS(=O)(=O)O.COCCN [Example 11],8.53
9,CNCCOC [Example 12],10.29
10,"CCn1ccnc1.O=[N+]([O-])O [compound 14, 1-Ethylimidazolium nitrate, reference compound]",4.68
11,"CCN.O=[N+]([O-])O [compound 15, Ethylammonium nitrate, reference compound]",3.18
12,"CCCN.O=[N+]([O-])O [compound 16, Propylammonium nitrate, reference compound]",0.16
